# The other results are listed elsewhere or left out.
# Amino acid sequences for entries named in this document (tags omitted). A change or cut given only in a name is not applied to a line headed by its entry.
# UniProt Q9NQC8: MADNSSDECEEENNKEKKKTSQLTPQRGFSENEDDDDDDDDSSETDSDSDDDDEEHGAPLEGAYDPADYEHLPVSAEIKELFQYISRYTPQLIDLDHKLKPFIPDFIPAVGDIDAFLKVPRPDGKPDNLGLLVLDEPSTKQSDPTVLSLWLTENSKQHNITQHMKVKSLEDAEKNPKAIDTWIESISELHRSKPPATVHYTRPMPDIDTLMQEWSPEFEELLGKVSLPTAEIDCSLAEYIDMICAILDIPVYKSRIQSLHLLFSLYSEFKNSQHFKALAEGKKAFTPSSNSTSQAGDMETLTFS
# UniProt Q08334: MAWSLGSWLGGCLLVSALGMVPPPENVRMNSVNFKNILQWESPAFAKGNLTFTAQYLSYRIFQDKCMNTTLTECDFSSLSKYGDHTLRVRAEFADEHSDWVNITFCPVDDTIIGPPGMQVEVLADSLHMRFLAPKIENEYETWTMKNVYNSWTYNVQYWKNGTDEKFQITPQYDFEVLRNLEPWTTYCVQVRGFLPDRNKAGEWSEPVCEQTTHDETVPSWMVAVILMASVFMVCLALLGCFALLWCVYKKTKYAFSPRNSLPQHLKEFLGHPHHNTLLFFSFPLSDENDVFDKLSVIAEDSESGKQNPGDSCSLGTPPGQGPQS
# UniProt Q9NRY2: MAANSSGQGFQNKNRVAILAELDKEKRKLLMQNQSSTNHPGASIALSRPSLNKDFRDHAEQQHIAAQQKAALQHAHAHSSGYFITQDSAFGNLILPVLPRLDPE
# UniProt Q9UG01, whole entry, looked up: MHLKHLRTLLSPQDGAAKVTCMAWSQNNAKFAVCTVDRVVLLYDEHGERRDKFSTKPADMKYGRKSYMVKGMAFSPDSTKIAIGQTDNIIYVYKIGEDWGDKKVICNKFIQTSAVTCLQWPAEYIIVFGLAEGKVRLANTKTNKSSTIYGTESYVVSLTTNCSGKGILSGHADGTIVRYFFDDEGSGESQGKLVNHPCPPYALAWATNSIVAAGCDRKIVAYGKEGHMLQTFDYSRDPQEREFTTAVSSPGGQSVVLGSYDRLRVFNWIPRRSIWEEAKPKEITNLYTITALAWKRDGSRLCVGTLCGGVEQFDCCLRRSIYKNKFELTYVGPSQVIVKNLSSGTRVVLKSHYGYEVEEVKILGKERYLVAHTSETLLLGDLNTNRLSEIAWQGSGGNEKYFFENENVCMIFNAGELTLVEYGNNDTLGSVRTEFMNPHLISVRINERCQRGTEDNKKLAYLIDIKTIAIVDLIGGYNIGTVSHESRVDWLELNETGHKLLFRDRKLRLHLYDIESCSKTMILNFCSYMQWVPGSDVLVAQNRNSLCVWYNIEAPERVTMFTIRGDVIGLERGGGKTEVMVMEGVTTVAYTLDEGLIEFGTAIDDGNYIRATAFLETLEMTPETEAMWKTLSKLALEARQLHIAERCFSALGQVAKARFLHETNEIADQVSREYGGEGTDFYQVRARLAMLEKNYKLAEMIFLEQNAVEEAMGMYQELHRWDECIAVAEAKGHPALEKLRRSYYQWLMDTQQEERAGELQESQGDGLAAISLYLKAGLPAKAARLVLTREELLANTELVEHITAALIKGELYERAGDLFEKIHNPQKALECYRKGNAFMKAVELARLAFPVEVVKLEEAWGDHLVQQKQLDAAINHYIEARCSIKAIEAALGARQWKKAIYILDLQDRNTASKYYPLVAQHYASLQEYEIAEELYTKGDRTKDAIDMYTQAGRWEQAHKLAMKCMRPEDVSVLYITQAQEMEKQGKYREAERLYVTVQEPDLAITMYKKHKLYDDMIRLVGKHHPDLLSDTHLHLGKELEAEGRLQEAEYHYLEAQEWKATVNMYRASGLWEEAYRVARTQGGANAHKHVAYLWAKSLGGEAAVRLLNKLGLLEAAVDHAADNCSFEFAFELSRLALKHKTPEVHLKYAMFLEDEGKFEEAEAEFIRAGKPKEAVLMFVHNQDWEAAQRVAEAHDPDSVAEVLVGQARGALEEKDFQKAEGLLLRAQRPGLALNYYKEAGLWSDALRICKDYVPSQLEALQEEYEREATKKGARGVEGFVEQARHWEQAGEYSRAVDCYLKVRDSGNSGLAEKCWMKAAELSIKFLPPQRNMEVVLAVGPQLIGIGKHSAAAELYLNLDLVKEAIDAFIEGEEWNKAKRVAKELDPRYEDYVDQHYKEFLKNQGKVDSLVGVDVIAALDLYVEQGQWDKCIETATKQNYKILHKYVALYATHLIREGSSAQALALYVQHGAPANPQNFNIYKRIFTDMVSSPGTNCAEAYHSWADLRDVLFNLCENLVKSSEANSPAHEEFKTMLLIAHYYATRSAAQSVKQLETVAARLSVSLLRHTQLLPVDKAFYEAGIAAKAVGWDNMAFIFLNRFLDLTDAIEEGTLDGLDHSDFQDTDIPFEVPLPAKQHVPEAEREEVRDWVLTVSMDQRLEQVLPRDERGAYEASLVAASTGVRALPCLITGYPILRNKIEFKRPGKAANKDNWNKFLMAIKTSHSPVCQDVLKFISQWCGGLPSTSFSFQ
# UniProt P01871, whole entry, looked up: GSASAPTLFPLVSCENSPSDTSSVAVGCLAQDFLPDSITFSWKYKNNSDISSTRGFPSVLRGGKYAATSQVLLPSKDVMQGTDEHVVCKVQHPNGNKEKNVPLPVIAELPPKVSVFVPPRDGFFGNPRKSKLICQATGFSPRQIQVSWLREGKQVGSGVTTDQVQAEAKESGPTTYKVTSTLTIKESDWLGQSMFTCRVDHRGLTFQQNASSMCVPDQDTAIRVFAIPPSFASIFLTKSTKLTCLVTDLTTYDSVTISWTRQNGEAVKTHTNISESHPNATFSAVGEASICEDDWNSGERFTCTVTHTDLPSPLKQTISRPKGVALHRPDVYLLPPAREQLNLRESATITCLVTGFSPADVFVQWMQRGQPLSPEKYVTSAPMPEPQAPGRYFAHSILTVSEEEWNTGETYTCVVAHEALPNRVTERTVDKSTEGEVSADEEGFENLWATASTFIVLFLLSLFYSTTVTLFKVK
# UniProt P58166: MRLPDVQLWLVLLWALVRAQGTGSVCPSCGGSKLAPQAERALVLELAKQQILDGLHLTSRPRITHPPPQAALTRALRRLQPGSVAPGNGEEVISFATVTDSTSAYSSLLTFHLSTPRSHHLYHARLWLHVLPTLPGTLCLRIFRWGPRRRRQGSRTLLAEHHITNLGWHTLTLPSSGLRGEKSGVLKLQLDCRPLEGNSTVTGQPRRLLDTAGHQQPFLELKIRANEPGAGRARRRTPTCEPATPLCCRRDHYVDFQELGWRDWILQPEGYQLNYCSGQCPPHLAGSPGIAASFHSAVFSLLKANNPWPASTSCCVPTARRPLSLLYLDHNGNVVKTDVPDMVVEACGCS
# UniProt P35475: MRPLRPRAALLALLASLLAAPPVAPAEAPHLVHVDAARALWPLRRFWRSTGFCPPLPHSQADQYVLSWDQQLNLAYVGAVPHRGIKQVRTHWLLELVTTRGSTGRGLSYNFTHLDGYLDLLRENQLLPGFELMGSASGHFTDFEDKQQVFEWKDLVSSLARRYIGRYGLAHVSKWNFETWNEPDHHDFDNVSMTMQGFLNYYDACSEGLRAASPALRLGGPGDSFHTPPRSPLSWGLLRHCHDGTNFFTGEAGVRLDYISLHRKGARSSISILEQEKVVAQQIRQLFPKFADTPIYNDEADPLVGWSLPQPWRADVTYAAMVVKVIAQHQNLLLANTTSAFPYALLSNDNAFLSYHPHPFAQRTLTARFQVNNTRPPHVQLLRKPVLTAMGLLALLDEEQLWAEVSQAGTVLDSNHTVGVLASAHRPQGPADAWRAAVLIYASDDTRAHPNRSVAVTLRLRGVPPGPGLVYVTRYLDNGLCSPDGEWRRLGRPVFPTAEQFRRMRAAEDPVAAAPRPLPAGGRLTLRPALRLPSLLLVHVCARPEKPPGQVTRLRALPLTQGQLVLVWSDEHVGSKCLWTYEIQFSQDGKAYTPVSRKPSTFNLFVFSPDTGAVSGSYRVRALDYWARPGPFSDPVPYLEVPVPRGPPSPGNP
# UniProt P78552: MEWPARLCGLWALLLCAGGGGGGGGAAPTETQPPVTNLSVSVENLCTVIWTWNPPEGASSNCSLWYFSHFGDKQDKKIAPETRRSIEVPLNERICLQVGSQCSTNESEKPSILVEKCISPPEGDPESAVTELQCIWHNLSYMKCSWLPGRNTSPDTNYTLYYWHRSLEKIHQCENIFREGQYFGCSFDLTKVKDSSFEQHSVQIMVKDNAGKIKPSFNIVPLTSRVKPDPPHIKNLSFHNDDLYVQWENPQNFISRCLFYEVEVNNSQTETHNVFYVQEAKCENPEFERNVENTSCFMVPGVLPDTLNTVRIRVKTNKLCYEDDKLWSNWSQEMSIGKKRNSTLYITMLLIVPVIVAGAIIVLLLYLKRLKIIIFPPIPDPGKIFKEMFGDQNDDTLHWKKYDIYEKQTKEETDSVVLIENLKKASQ
# UniProt P40189: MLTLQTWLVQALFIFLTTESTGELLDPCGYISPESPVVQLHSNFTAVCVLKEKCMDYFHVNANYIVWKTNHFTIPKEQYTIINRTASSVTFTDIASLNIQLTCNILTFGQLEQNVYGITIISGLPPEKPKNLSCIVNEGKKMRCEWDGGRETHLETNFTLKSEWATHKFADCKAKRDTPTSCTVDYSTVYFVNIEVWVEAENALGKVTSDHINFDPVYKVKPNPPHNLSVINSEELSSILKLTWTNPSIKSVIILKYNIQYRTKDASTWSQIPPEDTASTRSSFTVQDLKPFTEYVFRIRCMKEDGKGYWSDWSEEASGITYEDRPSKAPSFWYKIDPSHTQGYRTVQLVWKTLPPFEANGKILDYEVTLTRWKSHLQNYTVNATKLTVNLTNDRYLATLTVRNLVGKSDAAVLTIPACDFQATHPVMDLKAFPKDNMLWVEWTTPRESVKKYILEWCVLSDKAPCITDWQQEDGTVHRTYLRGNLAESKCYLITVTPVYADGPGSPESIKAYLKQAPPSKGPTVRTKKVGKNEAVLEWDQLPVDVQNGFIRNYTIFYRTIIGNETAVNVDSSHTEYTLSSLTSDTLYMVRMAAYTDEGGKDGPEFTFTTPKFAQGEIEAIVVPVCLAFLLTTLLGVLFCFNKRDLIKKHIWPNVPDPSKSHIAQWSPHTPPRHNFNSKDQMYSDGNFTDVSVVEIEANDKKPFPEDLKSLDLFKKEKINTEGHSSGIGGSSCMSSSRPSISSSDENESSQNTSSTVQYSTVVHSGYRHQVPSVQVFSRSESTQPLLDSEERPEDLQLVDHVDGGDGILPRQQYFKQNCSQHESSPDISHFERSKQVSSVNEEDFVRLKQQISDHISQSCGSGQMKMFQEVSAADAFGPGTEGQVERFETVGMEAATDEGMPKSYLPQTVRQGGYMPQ
# UniProt P15516: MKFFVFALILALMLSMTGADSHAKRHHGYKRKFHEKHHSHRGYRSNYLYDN
# UniProt Q9NRR6: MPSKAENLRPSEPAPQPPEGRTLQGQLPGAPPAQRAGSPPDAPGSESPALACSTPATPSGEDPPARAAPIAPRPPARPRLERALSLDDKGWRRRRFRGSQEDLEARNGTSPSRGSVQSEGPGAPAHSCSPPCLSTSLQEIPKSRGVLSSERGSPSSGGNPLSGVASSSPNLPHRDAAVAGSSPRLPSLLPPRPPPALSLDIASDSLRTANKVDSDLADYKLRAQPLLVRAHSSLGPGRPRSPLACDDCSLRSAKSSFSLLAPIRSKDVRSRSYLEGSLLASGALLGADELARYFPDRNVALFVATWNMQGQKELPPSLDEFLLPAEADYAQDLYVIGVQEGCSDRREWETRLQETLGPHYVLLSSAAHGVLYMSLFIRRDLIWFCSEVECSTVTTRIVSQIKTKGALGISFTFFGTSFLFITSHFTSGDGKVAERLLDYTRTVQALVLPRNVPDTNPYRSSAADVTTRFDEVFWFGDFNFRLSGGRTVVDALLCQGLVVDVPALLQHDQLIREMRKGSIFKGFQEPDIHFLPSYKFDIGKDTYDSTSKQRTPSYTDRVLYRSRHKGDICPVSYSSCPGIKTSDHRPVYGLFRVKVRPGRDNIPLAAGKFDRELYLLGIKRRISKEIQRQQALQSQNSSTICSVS
# UniProt P01877, whole entry, looked up: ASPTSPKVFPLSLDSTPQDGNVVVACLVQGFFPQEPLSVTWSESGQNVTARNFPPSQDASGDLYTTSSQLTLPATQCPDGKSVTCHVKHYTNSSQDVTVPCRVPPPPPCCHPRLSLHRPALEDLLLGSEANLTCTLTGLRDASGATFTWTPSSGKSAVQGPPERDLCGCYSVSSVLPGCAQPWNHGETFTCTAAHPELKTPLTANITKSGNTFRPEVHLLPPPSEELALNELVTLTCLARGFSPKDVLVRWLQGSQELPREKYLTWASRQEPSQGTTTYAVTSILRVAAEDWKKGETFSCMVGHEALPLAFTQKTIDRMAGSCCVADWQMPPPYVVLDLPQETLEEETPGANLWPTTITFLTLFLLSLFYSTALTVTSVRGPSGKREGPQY
# IGKV3D-7, A0A0C4DH55, UniProt A0A0C4DH55, whole entry, looked up: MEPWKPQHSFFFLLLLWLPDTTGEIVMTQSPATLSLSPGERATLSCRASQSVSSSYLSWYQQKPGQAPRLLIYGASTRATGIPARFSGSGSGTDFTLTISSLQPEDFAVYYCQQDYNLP
# Compound: CC1=C2C(=CC=C1)N=C(N(C2=O)C3=CC=CC=C3C)CN4C=NC5=C(N=CN=C54)N
# Test: log2 fold change, soluble protein after heating vs DMSO (PISA); higher = thermal stabilisation; K562 lysate, 10 uM; active = over 0.2 and 3.5 SD of the protein, either way, in both replicates (recomputed)
# Procedure, shortened: (§1)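 Quantification was by TMTpro 16plex LC-MS/MS with equalised channel sums, applied to the supernatant after 21,000xg for 90 min. Samples were crude K562 extract at 1 mg/mL protein in PBS pH 7.4 with 1 mM MgCl2, treated with 10 μM compound for 30 min, heated for 3 min across 48°C-58°C, pooled and brought to 0.5% NP-40 at 4°C. Values are log-two fold changes in thermal stability relative to solvent controls, from duplicates.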
row,Target,log2 fold change
1,HYOU1 (UniProt J3QL06),inactive: 0.009
2,IGLL5 (UniProt B9A064),inactive: 0.065
3,HYDIN (UniProt Q4G0P3),inactive: -0.069
4,IFT46 isoform 2 (UniProt Q9NQC8),inactive: -0.065
5,IL10RB (UniProt Q08334),inactive: 0.042
6,IFT122 isoform 5 (UniProt Q9HBG6),inactive: 0.106
7,IGSF1 isoform 4 (UniProt Q8N6C5),inactive: 0.033
8,INIP (UniProt Q9NRY2),inactive: 0.09
9,IFT172 (UniProt Q9UG01),inactive: -0.023

# Compound: Cc1sc2c(c1C)C(c1ccc(Cl)cc1)=N[C@@H](CC(=O)OC(C)(C)C)c1nnc(C)n1-2
# Test: as above
# Procedure, shortened: as §1
row,Target,log2 fold change
1,HYOU1 (UniProt J3QL06),inactive: -0.211
2,IFIT3 (UniProt O14879),inactive: -0.037
3,HYDIN (UniProt Q4G0P3),inactive: -0.078
4,INCENP (UniProt Q9NQS7),inactive: 0.048
5,IFT57 (UniProt Q9NWB7),inactive: 0.018
6,HUWE1 (UniProt H0Y659),inactive: 0.094
7,HSPBP1 (UniProt K7EMM7),inactive: 0.036
8,IFNAR1 (UniProt P17181),inactive: 0.016
9,INAFM2 (UniProt P0DMQ5),inactive: -0.098
10,IL10RB (UniProt Q08334),inactive: -0.004
11,IFT122 isoform 5 (UniProt Q9HBG6),inactive: -0.014
12,IGHM isoform 2 (UniProt P01871),inactive: 0.169
13,INO80B (UniProt Q9C086),inactive: -0.153
14,INIP (UniProt Q9NRY2),inactive: 0.021
15,IFT172 (UniProt Q9UG01),inactive: 0.103
16,IGKV3-20 (UniProt P01619),inactive: 0.107

# Compound: c1ccc([C@@H]2C[C@H]2NC2CCNCC2)cc1
# Test: as above
# Procedure, shortened: as §1
row,Target,log2 fold change
1,INHBE (UniProt P58166),inactive: 0
2,IDUA (UniProt P35475),inactive: 0.022
3,IL13RA1 (UniProt P78552),inactive: -0.271
4,IGLL5 (UniProt B9A064),inactive: -0.245
5,IL6ST (UniProt P40189),inactive: 0.162
6,HTRA3 (UniProt P83110),inactive: -0.439
7,HTN3 (UniProt P15516),inactive: 0.046
8,HSPH1 (UniProt Q5TBM3),inactive: 0.161
9,IFT46 isoform 2 (UniProt Q9NQC8),inactive: -0.083
10,INPP5E (UniProt Q9NRR6),inactive: -0.038
11,IFNAR1 (UniProt P17181),inactive: 0.074
12,IMP4 (UniProt Q96G21),inactive: 0.053
13,IGHM isoform 2 (UniProt P01871),inactive: -0.146
14,IGHA2 (UniProt P01877),inactive: -0.406
15,IGSF1 isoform 4 (UniProt Q8N6C5),inactive: -0.064
16,"IGHV3-72, A0A4W8ZXM2",inactive: -0.126
17,"IGKV1D-33, A0A2Q2TTZ9",inactive: -0.157
18,"IGKV3D-7, A0A0C4DH55",inactive: -0.161
19,IGKV3-20 (UniProt P01619),inactive: -0.243
20,INO80 (UniProt Q9ULG1),inactive: 0.028
